Screen size: about 340,000 compounds; about 170 (0.05%) were called active. Inconclusive results, whose numbers are uncertain, are shown with a selection of clear calls. The call rests on the fitted dose curve; in most records, active means well fitted inhibition curve with a large enough effect in the signal ratio, with a control signal flat (not every such curve was filed as active); inconclusive means small, poorly fitted or top-dose-only effect, or effect the other way, or a change in a side signal; inactive means flat fitted curve, though single readings scatter; the % refers to the signal ratio. Potencies of inconclusive entries are doubtful fits and often do not repeat.
test: qHTS Assay to Find Inhibitors of Chronic Active B-Cell Receptor Signaling; details: ABC-DLBCL IkBa-CBG/CBR reporter, luminescence ratio (green luciferase fused to IkBa over red control in TMD8 lymphoma cells), 4 h; activity change, negative = inhibition: at 46.1 µM (top of the series) unless noted;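 on activity change, negative = inhibition: plate controls were basal doxycycline-induced cells for no effect and cells given 10 µM MG132 for full effect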
Summary of the method: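 Concentration-response series (up to 46 uM) were applied to TMD8 dual-reporter cells for 4 h at 37C with doxycycline. Green/red ratio, after filter-overlap correction, defined %Activity; red signal alone was normalised to basal cells and zero luminescence.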
Potency means the concentration at half of the fitted maximal effect.

Structure (SMILES) | Potency | activity change, negative = inhibition
CCOc1ccc(OCc2cccc(C(=O)N3CCCCCC3)c2)cc1 | inconclusive: 25.1 µM [falling, partial curve] | 
CCCC(=O)Nc1nc2c(s1)COc1ccccc1-2 |  | inconclusive: 18.3%
N#CC(C(=O)NCc1ccccc1)c1nc2ccccc2nc1N1CCCC1 (centres undefined) |  | inactive: 14.7%
O=C(NCC1CCCO1)c1ccc(OC2CCN(C(=O)C3CC3)CC2)cc1 (centres undefined) | inconclusive: 6.31 µM [falling, single point] | 
O=S(=O)(Nc1cc(Sc2cccc3cccnc23)c(O)c2ccccc12)c1ccc(F)cc1 |  | inconclusive: 18% [cytotoxic]
COc1ccccc1Nc1nc2ccccc2[nH]1 |  | inconclusive: -17.3%
O=C(NC1=NCCS1)c1ccc(Cl)c(Cl)c1 |  | inconclusive: 5.59%
CCOC(=O)CSc1nnc(-c2ccc([N+](=O)[O-])cc2)o1 |  | inconclusive: 4.7%
Cc1ccc(S(=O)(=O)N(C)CC(=O)Nc2ccc3c(c2)OCO3)cc1 |  | inactive: -5.23%
Clc1ccc(-c2nc(Cc3ccccc3)no2)cc1 | inconclusive: 7.31 µM [rising, partial curve, poor fit] | 
CCOC(=O)CCn1c(=S)n(CCC(=O)OCC)c2ccccc21 |  | inconclusive: 2.54%
O=C(Nc1nccs1)c1cccc(NC(=O)c2ccco2)c1 |  | inconclusive: 11.3%
CCCCOc1ccc(Br)cc1/C(C)=N/NC1=NCCN1 |  | inconclusive: -22.6%
CCS(=O)(=O)Nc1cccc(-c2ccc3nnc(-c4cccnc4)n3n2)c1 | inconclusive: 5.01 µM [falling, full curve] | 
CC(NCCC1(C(C)C)CCOC(C)(C)C1)c1cccs1 (centres undefined) |  | inactive: -0.304%
O=C(Nc1ccc(Cl)cc1)c1cc2c(cc1O)[nH]c1ccccc12 |  | inactive: 17%
O=C(CN1CCN(c2ncccn2)CC1)N1CCc2ccccc21 |  | inconclusive: 3.45%
COc1ccc(/C=N/NC(=S)Nc2ccccc2)cc1 | inconclusive: 5.62 µM [cytotoxic, single point] | 
Cc1nn(-c2ccccc2)c2c1C(c1ccncc1)C(C#N)=C(N)O2 (centres undefined) | inconclusive: 8.2 µM [rising, partial curve, poor fit] | 
C=C(C)C1Cc2c(C)nn(-c3cccc4cccnc34)c2C1 (centres undefined) |  | inconclusive: -22.7%
CC(=O)Nc1ccc(NC(=O)COC(=O)c2c(C)nn(-c3ccccc3)c2C)cc1 | inconclusive: 11.6 µM [falling, partial curve, poor fit] | 
Cc1ccc(CC(=O)c2ccc(Cl)cc2)cc1 |  | inconclusive: 16.1%
C[C@H](CO)N1C[C@H](C)[C@@H](CN(C)C(=O)NC2CCCCC2)Oc2ccc(NC(=O)Nc3ccccc3)cc2C1=O |  | inactive: 1.37%
O=C1CC(c2cccc(Br)c2)c2cc3c(cc2N1)CCC3 (centres undefined) | inconclusive: 12.6 µM [falling, partial curve] | 
O=[N+]([O-])c1ccc(NC(=S)N/C(=N/CS(=O)(=O)c2ccccc2)c2ccccc2)cc1 |  | inconclusive: 3.31%

Structure (SMILES) | Potency | activity change, negative = inhibition
Cc1cccc(NC(=S)NN2CCN(C)CC2)c1 |  | inconclusive: 14.2%
CSc1ccc(C(=O)NC2CCSc3ccccc32)cc1 (centres undefined) | inconclusive: 1.26 µM [falling, full curve, poor fit] | 
Cn1c(=O)c2ncn(CC(=O)Nc3ccc4c5c(cccc35)CC4)c2n(C)c1=O |  | inconclusive: 10.6%
Cc1cc(C)nc(SCc2nnc(SCC(=O)Nc3nc(-c4ccccc4)cs3)n2-c2ccccc2)n1 | inconclusive: 6.51 µM [rising, single point] | 
COC(=O)c1ccc(Cn2nnc3c(=O)[nH]c(C4CCCN(S(=O)(=O)c5ccccc5Cl)C4)nc32)cc1 (centres undefined) |  | inconclusive: 6.61%
CCCC1CCC(=NNC(=S)NCCc2ccccc2)CC1 (centres undefined) | inconclusive: 17.8 µM [falling, partial curve, poor fit] | 
COc1ccc(NC(=O)C(=O)c2cn(CC(=O)N3CCCC3)c3ccccc23)cc1 | inconclusive: 14.1 µM [cytotoxic, partial curve] | 
CC(C)(C)c1ccc(OCC(=O)NCCN2CCCC2)cc1 |  | inconclusive: -12.9%
O=C(Cc1ccccc1)N/N=C/c1ccc(OC(=O)/C=C\c2ccco2)cc1 |  | inconclusive: 16.2%
OCCNc1nc2ccccc2nc1NCCO |  | inconclusive: 2.35%
Cc1cc(NC(=O)CCCC(=O)N(CC(=O)NC2CCCCC2)c2ccccc2)no1 |  | inconclusive: -1.92%
CC1(C)O[C@@H]2[C@H](O1)[C@@H](CO)O[C@H]2n1c(N2CCCCC2)nc2c(N)ncnc21 |  | inconclusive: -13.2%
COc1ccc(CC(=O)NNc2ncnc3c2cnn3-c2ccccc2)cc1 |  | inconclusive: 4.55%
CCc1ccc(-c2csc(NC(=O)C3=NN(c4ccccc4)C(=O)CC3)n2)cc1 | inconclusive: 23.1 µM [falling, partial curve, poor fit] | 
CCOc1cc(N2CCOCC2)c(OCC)cc1NC(=O)CN1C(=O)N(C)C2(CCCCC2)C1=O |  | inconclusive: 3.89%
CN(C)CCNc1nc(-c2ccccc2)c2c(c1C#N)CC(C)(C)OC2 | inconclusive: 5.17 µM [rising, full curve, poor fit] | 
COc1n[nH]c(C(=O)Nc2cc(Cl)ccc2Cl)c1[N+](=O)[O-] |  | inconclusive: 6%
Cc1ccc(C2=[N+]([O-])C3(CCCCC/C3=N\NC(N)=O)N(O)C2(C)C)o1 (centres undefined) | inconclusive: 2.06 µM [falling, partial curve, poor fit] | 
Cc1ccc(-c2cnn(-c3cccc([N+](=O)[O-])c3)c2N)cc1 | inconclusive: 22.4 µM [falling, single point] | 
COC(=O)CCn1nnc(-c2ccc(C(C)C)cc2)n1 | inconclusive: 20.6 µM [falling, partial curve] | 
CCOc1ncccc1C(=O)Nc1ccc(C)c(S(=O)(=O)N2CCCCCC2)c1 |  | inconclusive: 11%
CCCCOc1nc2c(c(=O)n(C)c(=O)n2C)n1C |  | inconclusive: 16.7%
COc1ccc(CCNc2ncnc3c2nnn3C)cc1 |  | inconclusive: -2.52%
Cc1ccc(-c2csc(NC(=O)c3ccno3)n2)cc1 | inconclusive: 9.2 µM [rising, partial curve, poor fit] | 

Exported tab-delimited: entries from further up
Structure (SMILES)	Potency	activity change, negative = inhibition
CCCC1CCC(=NNC(=S)NCCc2ccccc2)CC1 (centres undefined)	inconclusive: 17.8 µM [falling, partial curve, poor fit]	
Cc1cc(NC(=O)CCCC(=O)N(CC(=O)NC2CCCCC2)c2ccccc2)no1		inconclusive: -1.92%
Cc1ccc(C2=[N+]([O-])C3(CCCCC/C3=N\NC(N)=O)N(O)C2(C)C)o1 (centres undefined)	inconclusive: 2.06 µM [falling, partial curve, poor fit]	
Cc1ccc(-c2cnn(-c3cccc([N+](=O)[O-])c3)c2N)cc1	inconclusive: 22.4 µM [falling, single point]	

From PubChem BioAssay AID493014 (National Center for Advancing Translational Sciences (NCATS), 2011)
